At least one compound was matched to its structure with a doubt left.
Tested on: differentiated human neuroblastoma cells overexpressing full-length human Tau P301L (misfolded Tau, MC1 antibody)
Assay: Reduction of intracellular Tau misfolding by immunocytochemistry
Type: cell-based
Conditions: RA-differentiated neuroblastoma cells, 0.1 to 10 nM for 24 hours, misfolded Tau (MC1) normalized to total Tau; FIG. 1

With `c1ccc2c3c([nH]c2c1)CN(c1ccc(N2CCOCC2)nc1)CC3` [Example 44] the “Reduction of intracellular Tau misfolding” value was “showed potency at low nM concentration”.
